Measurements taken from paper PMC3388046.
No constants are given. Whether binding was seen depends on the method and setting. A result given as binding can be weak or reduced; the word gives no strength.

Sequences of proteins named here, by UniProt entry; tags and fusion partners are left off. A change or cut given only in a name is not applied to a line headed by its entry.
UniProt P01042: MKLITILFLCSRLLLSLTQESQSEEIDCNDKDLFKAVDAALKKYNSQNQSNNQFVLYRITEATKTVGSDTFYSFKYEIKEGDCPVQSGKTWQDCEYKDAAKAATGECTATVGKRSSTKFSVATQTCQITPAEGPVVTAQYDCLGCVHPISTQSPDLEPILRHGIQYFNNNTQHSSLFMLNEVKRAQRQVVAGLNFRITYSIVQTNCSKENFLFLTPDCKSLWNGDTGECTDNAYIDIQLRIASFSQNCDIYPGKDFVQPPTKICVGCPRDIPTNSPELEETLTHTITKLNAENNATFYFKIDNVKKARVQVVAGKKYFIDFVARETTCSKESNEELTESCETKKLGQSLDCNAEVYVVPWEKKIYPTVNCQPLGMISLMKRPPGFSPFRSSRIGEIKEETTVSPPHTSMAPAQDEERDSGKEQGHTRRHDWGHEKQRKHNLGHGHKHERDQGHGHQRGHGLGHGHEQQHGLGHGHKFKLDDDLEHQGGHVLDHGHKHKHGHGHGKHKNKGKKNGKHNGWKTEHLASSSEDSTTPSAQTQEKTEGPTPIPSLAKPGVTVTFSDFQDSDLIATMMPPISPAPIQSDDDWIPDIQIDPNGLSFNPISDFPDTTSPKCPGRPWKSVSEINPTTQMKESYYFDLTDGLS
UniProt P02792: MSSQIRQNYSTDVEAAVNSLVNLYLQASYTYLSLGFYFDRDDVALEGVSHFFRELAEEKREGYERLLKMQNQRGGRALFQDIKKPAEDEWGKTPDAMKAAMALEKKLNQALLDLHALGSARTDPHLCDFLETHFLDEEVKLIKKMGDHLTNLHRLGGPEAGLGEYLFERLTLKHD

Target: GST-tagged domain 5 of HKa (human) (UniProt P01042)
Assay: pull-down; 10 µg GST-D5 or GST incubated with 20 µg biotinylated HFt or LFt on Protein G Sepharose at 4°C overnight, anti-GST antibody added for 2 hr at 4°C; blot with streptavidin-HRP and anti-GST; both purified

binding | Substance
binds | recombinant human ferritin H homopolymer (from UniProt P02794 1-183)
binds | recombinant human ferritin L homopolymer (from UniProt P02792 1-175)
